According to patent publication US20090247609A1:
No constants are given. Whether binding was seen depends on the method and setting. In cells and extracts the contact can be indirect. Some binding calls cover weakened binding; strength is not graded here.

Chains of the proteins cited; added tags and fusions are not shown. Lines headed by an entry give the natural chain unless they say otherwise; changes in a name come on top.
UniProt Q12846: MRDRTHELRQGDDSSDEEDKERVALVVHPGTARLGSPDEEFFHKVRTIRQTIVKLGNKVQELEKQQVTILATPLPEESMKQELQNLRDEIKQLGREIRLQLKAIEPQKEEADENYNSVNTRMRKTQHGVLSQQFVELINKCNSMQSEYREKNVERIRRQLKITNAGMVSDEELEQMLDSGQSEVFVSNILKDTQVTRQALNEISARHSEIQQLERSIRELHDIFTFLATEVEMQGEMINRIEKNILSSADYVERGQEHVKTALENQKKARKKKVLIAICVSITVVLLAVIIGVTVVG
UniProt O00161: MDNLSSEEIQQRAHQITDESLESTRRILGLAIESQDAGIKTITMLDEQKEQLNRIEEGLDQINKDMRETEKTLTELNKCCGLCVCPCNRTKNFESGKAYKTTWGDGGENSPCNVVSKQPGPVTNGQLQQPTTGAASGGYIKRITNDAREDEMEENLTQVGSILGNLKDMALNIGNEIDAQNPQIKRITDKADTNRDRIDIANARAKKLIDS
UniProt P63027: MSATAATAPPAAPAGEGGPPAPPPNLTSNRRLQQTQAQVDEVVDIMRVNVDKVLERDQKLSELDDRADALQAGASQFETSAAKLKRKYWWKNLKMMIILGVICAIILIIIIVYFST

Target: exocytic SNARE complexes (human) (UniProt Q12846+O00161+P63027)
Experiment: co-immunoprecipitation from HEK-293 lysate with anti-Munc18c antibodies, Western blot

binding: binds
B1: Munc18c (protein)
chain: MAPPVAERGLKSVVWQKIKATVFDDCKKEGEWKIMLLDEFTTKLLASCCKMTDLLEEGITVVENIYKNREPVRQMKALYFITPTSKSVDCFLHDFASKSENKYKAAYIYFTDFCPDNLFNKIKASCSKSIRRCKEINISFIPHESQVYTLDVPDAFYYCYSPDPGNAKGKDAIMETMADQIVTVCATLDENPGVRYKSKPLDNASKLAQLVEKKLEDYYKIDEKSLIKGKTHSQLLIIDRGFDPVSTVLHELTFQAMAYDLLPIENDTYKYKTDGKEKEAILEEEDDLWVRIRHRHIAVVLEEIPKLMKEISSTKKATEGKTSLSALTQLMKKMPHFRKQITKQVVHLNLAEDCMNKFKLNIEKLCKTEQDLALGTDAEGQKVKDSMRVLLPVLLNKNHDNCDKIRAILLYIFSINGTTEENLDRLIQNVKIENESDMIRNWSYLGVPIVPQSQQGKPLRKDRSAEETFQLSRWTPFIKDIMEDAIDNRLDSKEWPYCSQCPAVWNGSGAVSARQKPRANYLEDRKNGSKLIVFVIGGITYSEVRCAYEVSQAHKSCEVIIGSTHVLTPKKLLDDIKMLNKPKDKVSLIKDE
